The text below walks through data of the supplement of paper PMC4604168 (melanoma cell lines).

Each structure is given as a SMILES string. The list shows a part of the results. Single values are uncertain, as repeats are few or missing.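 Cells were imaged in 1,536-well plates, and nuclei stained with an antibody against cleaved PARP were counted against all DNA-stained nuclei to give the apoptosis fraction. Screening doses were chosen to leave most cells alive, and resting and induced cleaved-PARP levels differ strongly between cell lines.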

In the assay the test system is LB2518-MEL. Put plainly: cleaved PARP positive nuclei fraction relative to DMSO control; melanoma cells; higher = more apoptosis. The following applies: library dose: low library concentration; 72 h.
As to `Cn1c(=O)n(-c2ccc(C(C)(C)C#N)cc2)c2c3cc(-c4cnc5ccccc5c4)ccc3ncc21` + Nc1ncn([C@H]2C[C@H](O)[C@@H](CO)O2)c(=O)n1 [decitabine] (first compound 0.004 µM, partner dose 0.1 µM), the “cleaved PARP positive nuclei fraction” value was determined as 125%.
With `CC(C)C[C@H](NC(=O)[C@H](Cc1ccccc1)NC(=O)c1cnccn1)B(O)O` [Bortezomib] + C=C(c1ccc(C(=O)O)cc1)c1cc2c(cc1C)C(C)(C)CCC2(C)C [Bexarotene] (first compound 0.001 µM, partner dose 2 µM), the “cleaved PARP positive nuclei fraction” value stood at 655%.
Turning to `CCCS(=O)(=O)Nc1ccc(F)c(C(=O)c2c[nH]c3ncc(Cl)cc23)c1F` + COCC[n+]1c2c(n(Cc3cnccn3)c1C)C(=O)c1ccccc1C2=O [YM155] (first compound 0.08 µM, partner dose 0.0004 µM), the “cleaved PARP positive nuclei fraction” value worked out at 235%.
As to `CN1CCN(c2ccc3nc(-c4c(N)c5c(F)cccc5[nH]c4=O)[nH]c3c2)CC1` [Dovitinib] + Cn1c(Nc2ccc(C(F)(F)F)cc2)nc2cc(Oc3ccnc(-c4ncc(C(F)(F)F)[nH]4)c3)ccc21 [CHIR265] (first compound 0.1 µM, partner dose 0.08 µM), the “cleaved PARP positive nuclei fraction” value was 104%.
Regarding `Cn1c(=O)n(-c2ccc(C(C)(C)C#N)cc2)c2c3cc(-c4cnc5ccccc5c4)ccc3ncc21` + Cn1nnc2c(C(N)=O)ncn2c1=O [temozolomide] (first compound 0.004 µM, partner dose 2 µM), the “cleaved PARP positive nuclei fraction” value came to 106%.
As for `CC(C)C[C@H](NC(=O)[C@H](Cc1ccccc1)NC(=O)c1cnccn1)B(O)O` [Bortezomib] + C[C@@H](Oc1cc(-c2cnn(C3CCNCC3)c2)cnc1N)c1c(Cl)ccc(F)c1Cl [Crizotinib] (first compound 0.001 µM, partner dose 0.2 µM), the “cleaved PARP positive nuclei fraction” value was found to be 798%.
